PubChem BioAssay AID1224830, NIAID – 2016
Test: 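Genes whose knock-down alters the TNF-alpha reporter response to LPS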 (primary screen). Cells: human THP-1 monocytic leukaemia cells, TNF dual-luciferase reporter clone, PMA-differentiated to macrophage-like cells. Reagents: siRNA pool against human genes, 50 nM. Duration: LPS for 4 h, given about 3 days after siRNA transfection. Conditions: bacterial LPS (TLR4 ligand), 10 ng/ml. Detection: 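Ratio of firefly to renilla light, scaled to the plate median and expressed as a robust z-score per replicate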. Reading the numbers: TNF reporter robust z-score: higher = stronger TNF reporter response to LPS. Hit rule: 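Each well counts as active if its z-score is over 2.8 or under -1.5; controls are left without a call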.
The whole screen tested about 18,000 reagents; below is a random part of them. Of all reagents, about 2,900 (16%) got an active call. 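Calls are made per well; low scores hint the gene aids the LPS response, high scores that it dampens it.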 Repeated entries: four replicate wells of each siRNA pool.

The first 12 entries, ahead of the listing:
| Gene | TNF reporter robust z-score | Call |
| --- | --- | --- |
| PDIA4 (GeneID 9601) | -0.59 | inactive |
| PDIA4 (GeneID 9601) | -0.88 | inactive |
| PDIA4 (GeneID 9601) | -1.18 | inactive |
| PDIA4 (GeneID 9601) | -0.53 | inactive |
| C1orf141 (GeneID 400757) | 2.45 | inactive |
| C1orf141 (GeneID 400757) | 1.92 | inactive |
| C1orf141 (GeneID 400757) | 2.22 | inactive |
| C1orf141 (GeneID 400757) | 2.27 | inactive |
| SSX2 (GeneID 6757) | 1.96 | inactive |
| SSX2 (GeneID 6757) | 1.12 | inactive |
| SSX2 (GeneID 6757) | 2.16 | inactive |
| SSX2 (GeneID 6757) | -0.7 | inactive |

The listing, from the first entry:
| Gene | TNF reporter robust z-score | Call |
| --- | --- | --- |
| PDIA4 (GeneID 9601) | -0.59 | inactive |
| PDIA4 (GeneID 9601) | -0.88 | inactive |
| PDIA4 (GeneID 9601) | -1.18 | inactive |
| PDIA4 (GeneID 9601) | -0.53 | inactive |
| C1orf141 (GeneID 400757) | 2.45 | inactive |
| C1orf141 (GeneID 400757) | 1.92 | inactive |
| C1orf141 (GeneID 400757) | 2.22 | inactive |
| C1orf141 (GeneID 400757) | 2.27 | inactive |
| SSX2 (GeneID 6757) | 1.96 | inactive |
| SSX2 (GeneID 6757) | 1.12 | inactive |
| SSX2 (GeneID 6757) | 2.16 | inactive |
| SSX2 (GeneID 6757) | -0.7 | inactive |
| PAF1 (GeneID 54623) | -0.95 | inactive |
| PAF1 (GeneID 54623) | -0.45 | inactive |
| PAF1 (GeneID 54623) | -0.81 | inactive |
| PAF1 (GeneID 54623) | 0.12 | inactive |
| UGDH (GeneID 7358) | -1.17 | inactive |
| UGDH (GeneID 7358) | -0.67 | inactive |
| UGDH (GeneID 7358) | -0.82 | inactive |
| UGDH (GeneID 7358) | -0.77 | inactive |
| ANXA6 (GeneID 309) | -0.99 | inactive |
| ANXA6 (GeneID 309) | -0.04 | inactive |
| ANXA6 (GeneID 309) | 0 | inactive |
| ANXA6 (GeneID 309) | 0.71 | inactive |
| ARNT (GeneID 405) | -1.21 | inactive |
| ARNT (GeneID 405) | -1.12 | inactive |
| ARNT (GeneID 405) | -1.28 | inactive |
| ARNT (GeneID 405) | 0 | inactive |
| B3GAT3 (GeneID 26229) | -0.58 | inactive |
| B3GAT3 (GeneID 26229) | -1.28 | inactive |
| B3GAT3 (GeneID 26229) | -1.2 | inactive |
| B3GAT3 (GeneID 26229) | -0.73 | inactive |
| NCOR1 (GeneID 9611) | 0.88 | inactive |
| NCOR1 (GeneID 9611) | 0.62 | inactive |
| NCOR1 (GeneID 9611) | -0.07 | inactive |
| NCOR1 (GeneID 9611) | 1.33 | inactive |
| OR5P2 (GeneID 120065) | -0.71 | inactive |
| OR5P2 (GeneID 120065) | -0.07 | inactive |
| OR5P2 (GeneID 120065) | -0.31 | inactive |
| OR5P2 (GeneID 120065) | 0.08 | inactive |
| HAND1 (GeneID 9421) | -0.2 | inactive |
| HAND1 (GeneID 9421) | -0.03 | inactive |
| HAND1 (GeneID 9421) | -0.11 | inactive |
| HAND1 (GeneID 9421) | -0.26 | inactive |
| IGDCC4 (GeneID 57722) | 0.74 | inactive |
| IGDCC4 (GeneID 57722) | 0.2 | inactive |
| IGDCC4 (GeneID 57722) | 1.02 | inactive |
| IGDCC4 (GeneID 57722) | 1.25 | inactive |
| ZNF777 (GeneID 27153) | 1.57 | inactive |
| ZNF777 (GeneID 27153) | 2.38 | inactive |
| ZNF777 (GeneID 27153) | 1.79 | inactive |
| ZNF777 (GeneID 27153) | 1.59 | inactive |
| OR8J1 (GeneID 219477) | -0.97 | inactive |
| OR8J1 (GeneID 219477) | -0.67 | inactive |
| OR8J1 (GeneID 219477) | 0.23 | inactive |
| OR8J1 (GeneID 219477) | 0.24 | inactive |
| AXIN2 (GeneID 8313) | 2.66 | inactive |
| AXIN2 (GeneID 8313) | 2.61 | inactive |
| AXIN2 (GeneID 8313) | 1.59 | inactive |
| AXIN2 (GeneID 8313) | -0.8 | inactive |
| ASCC1 (GeneID 51008) | -1.07 | inactive |
| ASCC1 (GeneID 51008) | -0.81 | inactive |
| ASCC1 (GeneID 51008) | -1.51 | active |
| ASCC1 (GeneID 51008) | -1.89 | active |
| DPP10 (GeneID 57628) | 0.96 | inactive |
| DPP10 (GeneID 57628) | 0.32 | inactive |
| DPP10 (GeneID 57628) | -0.02 | inactive |
| DPP10 (GeneID 57628) | 0.1 | inactive |
| FBXL7 (GeneID 23194) | 0.2 | inactive |
| FBXL7 (GeneID 23194) | -1.25 | inactive |
| FBXL7 (GeneID 23194) | -1.14 | inactive |
| FBXL7 (GeneID 23194) | 0.26 | inactive |
| ZXDA (GeneID 7789) | 0.96 | inactive |
| ZXDA (GeneID 7789) | 0.78 | inactive |
| ZXDA (GeneID 7789) | 0.39 | inactive |
| ZXDA (GeneID 7789) | 1.76 | inactive |
| RAPGEF3 (GeneID 10411) | -1.77 | active |
| RAPGEF3 (GeneID 10411) | -1.68 | active |
| RAPGEF3 (GeneID 10411) | -1.33 | inactive |
| RAPGEF3 (GeneID 10411) | -1.37 | inactive |
| ZNF793 (GeneID 390927) | -0.98 | inactive |
| ZNF793 (GeneID 390927) | -0.35 | inactive |
| ZNF793 (GeneID 390927) | -0.59 | inactive |
| ZNF793 (GeneID 390927) | 1.64 | inactive |
| HNRNPD (GeneID 3184) | 0.52 | inactive |
| HNRNPD (GeneID 3184) | 0.68 | inactive |
| HNRNPD (GeneID 3184) | -0.28 | inactive |
| HNRNPD (GeneID 3184) | 0.34 | inactive |
| FLRT3 (GeneID 23767) | -0.18 | inactive |
| FLRT3 (GeneID 23767) | -0.7 | inactive |
| FLRT3 (GeneID 23767) | 0.24 | inactive |
| FLRT3 (GeneID 23767) | -0.61 | inactive |
| DNTT (GeneID 1791) | -1.28 | inactive |
| DNTT (GeneID 1791) | -0.55 | inactive |
| DNTT (GeneID 1791) | -1.15 | inactive |
| DNTT (GeneID 1791) | 0.32 | inactive |
| CBLL1 (GeneID 79872) | -0.82 | inactive |
| CBLL1 (GeneID 79872) | -0.51 | inactive |
| CBLL1 (GeneID 79872) | 0.5 | inactive |
| CBLL1 (GeneID 79872) | -0.55 | inactive |
| TRDN (GeneID 10345) | -0.31 | inactive |
| TRDN (GeneID 10345) | -1.26 | inactive |
| TRDN (GeneID 10345) | -0.12 | inactive |
| TRDN (GeneID 10345) | -0.29 | inactive |
| ARHGEF4 (GeneID 50649) | 0.06 | inactive |
| ARHGEF4 (GeneID 50649) | 1.37 | inactive |
| ARHGEF4 (GeneID 50649) | 1.52 | inactive |
| ARHGEF4 (GeneID 50649) | 0.36 | inactive |
| CLNK (GeneID 116449) | 0.26 | inactive |
| CLNK (GeneID 116449) | 0.9 | inactive |
| CLNK (GeneID 116449) | -0.29 | inactive |
| CLNK (GeneID 116449) | 1.42 | inactive |
| PSMC6 (GeneID 5706) | -1.27 | inactive |
| PSMC6 (GeneID 5706) | -0.87 | inactive |
| PSMC6 (GeneID 5706) | -1.06 | inactive |
| PSMC6 (GeneID 5706) | -1.25 | inactive |
| RPL5 (GeneID 6125) | -0.61 | inactive |
| RPL5 (GeneID 6125) | 0.53 | inactive |
| RPL5 (GeneID 6125) | -0.15 | inactive |
| RPL5 (GeneID 6125) | 0 | inactive |
| FAM177A1 (GeneID 283635) | -0.9 | inactive |
| FAM177A1 (GeneID 283635) | -1.06 | inactive |
| FAM177A1 (GeneID 283635) | -0.69 | inactive |
| FAM177A1 (GeneID 283635) | -0.62 | inactive |
| SUPT5H (GeneID 6829) | 0.23 | inactive |
| SUPT5H (GeneID 6829) | 1.89 | inactive |
| SUPT5H (GeneID 6829) | 2.58 | inactive |
| SUPT5H (GeneID 6829) | 4.59 | active |
| HDHD3 (GeneID 81932) | -1.2 | inactive |
| HDHD3 (GeneID 81932) | 0.01 | inactive |
| HDHD3 (GeneID 81932) | -0.54 | inactive |
| HDHD3 (GeneID 81932) | -0.71 | inactive |
| NOBOX (GeneID 135935) | 0.19 | inactive |
| NOBOX (GeneID 135935) | -0.11 | inactive |
| NOBOX (GeneID 135935) | -1.39 | inactive |
| NOBOX (GeneID 135935) | 1.43 | inactive |
| SGSM3 (GeneID 27352) | 0.19 | inactive |
| SGSM3 (GeneID 27352) | 0.74 | inactive |
| SGSM3 (GeneID 27352) | 0.01 | inactive |
| SGSM3 (GeneID 27352) | 0.02 | inactive |
